Reference: US8592485B2, “Methods and pharmaceutical compositions for treating the animal central nervous system for psychiatric disorders” (HealthPartners Research Foundation, priority 2010, dated 2013)
For at least one compound, name, drawing or mass did not settle the structure.

How the values were obtained:
GSK3b [1] = assay: Hippocampal pGSK3b/GSK3b ratio in C57 mice after DFO (western blot, ELISA); assay type: in vivo; settings: DFO administered systemically, hippocampus (FIG. 1B)
Protocol: The study method providing results in FIGS. 1A and 1B comprised normal C57 mice which were treated with DFO by administration to the upper third of the nasal cavity, thereby delivering the DFO directly to the CNS by bypassing the blood-brain barrier. Treatment groups consisted of 1% DFO, 10% DFO and saline. Mice were treated five days/week for four weeks. Mice were then dosed a final time, euthanized after 30 minutes, brain tissues collected an analyzed for biochemical changes. Protein extraction was achieved by homogenization of frozen brain tissues in 5 volumes of ice-cold RIPA buffer supplemented with protease inhibitor cocktail and phosphatase inhibitor cocktail. Homogenates were centrifuged at 20,000×g for 20 minutes at 4C. Supernatant was collected from the cortex, diencephalon and hippocampus and stored at −70C until analysis by western blot and ELISA.

HepG2 cells = HepG2 cells supplemented with fetal calf serum; cited from earlier work
beta-Catenin = assay: Hippocampal beta-Catenin/Actin in C57 mice after DFO; assay type: in vivo; settings: systemic delivery of DFO (FIG. 2B)
[2] = system: mesenchymal stem cells (MSC); settings: BMP-2-treated mesenchymal stem cells; cited from earlier work
GSK3b [3] = assay: Whole brain pGSK3b/GSK3b ratio in tau mice (P301L) after intranasal DFO; assay type: in vivo, tau mice (P301L model); settings: 1% and 10% DFO to upper third of nasal cavity (FIG. 3)

Structure (SMILES): CC(=O)N(O)CCCCCNC(=O)CCC(=O)N(O)CCCCCNC(=O)CCC(=O)N(O)CCCCCN [DFO, deferoxamine]
- change in the ratio of pGSK3b/GSK3b (GSK3b [1]): no statistical change
- phosphorylation status of GSK3b (HepG2 cells): increases phosphorylation status of GSK3b
- levels of beta-Catenin/Actin (beta-Catenin): did not significantly alter
- phosphorylation status of GSK3b and b-catenin protein [2]: promote phosphorylation status of GSK3b and increased b-catenin protein
- ratio of whole brain concentrations of pGSK3b/GSK3b (GSK3b [3]): significant increase
